According to PubChem BioAssay AID1362 (SRMLSC, 2008):
The other results are listed elsewhere or left out.

Assay: growth inhibition of WT strain, primary screen, mitochondrial fusion inhibitor project, WT and mutant strains, chemical genetic (AID 1362); also: tested in S. cerevisiae
Conditions: mitochondrial fusion phenotypic screen, at 10 µM

Compound | inhibition
CP(=O)(Nc1ccccc1F)Oc1ccccc1 (stereo unspecified) | -47.8%
CC(C)(C)C(=O)NC(Sc1ccccc1)C(Cl)(Cl)Cl (stereo unspecified) | 11.4%
CC(C)c1ccc(OP(C)(=O)Nc2ccc(SC(F)(F)F)cc2)cc1 (stereo unspecified) | -7.45%
Cc1ccc(C)c(NP(C)(=O)Oc2ccccc2)c1 (stereo unspecified) | 0.62%
Cc1cc(C)cc(OP(C)(=O)Nc2ccccn2)c1 (stereo unspecified) | 7.67%
CP(=O)(Nc1cccc(Br)c1)Oc1ccccc1 (stereo unspecified) | 9.71%
Cc1ccc(NCCc2c([N+](=O)[O-])cc([N+](=O)[O-])cc2[N+](=O)[O-])cc1 | 46.4%
CCOP(=O)(Nc1cccc2ccccc12)OCC | -12.8%
COc1cc(C(=O)NCC2(N3CCOCC3)CCCCC2)cc(Cl)c1OC(C)C | -6.1%
CCOC(=O)c1ccc(NP(C)(=O)Oc2cc(C)cc(C)c2)cc1 (stereo unspecified) | -13.7%
Cc1cccc(OCC(=O)OC2CN3CCC2CC3)c1 (stereo unspecified) | 1.24%
Cc1cc(C)cc(OP(C)(=O)Nc2ccc(C)cc2C)c1 (stereo unspecified) | 8.23%
O=[N+]([O-])c1ccc2c(c1)nnn2O | -8.9%
CC1=NCCc2c1[nH]c1ccccc21.O=[N+]([O-])c1cc([N+](=O)[O-])c(O)c([N+](=O)[O-])c1 | 20.7%
CCOP1(=S)c2c(C)nn(CCC#N)c2N=C(c2ccc(F)cc2)N1C (stereo unspecified) | -6.37%
CCOP1(=S)c2c(C)nn(CCC#N)c2N=C(c2ccccc2F)N1C (stereo unspecified) | -5.43%
O=P(Nc1nccs1)(Oc1ccccc1)Oc1ccccc1 | 2.9%
O=P(Nc1nccs1)(c1ccccc1)c1nc2ccccc2s1 (stereo unspecified) | -0.22%
CN1CCCCC1COC(=O)C1(O)c2ccccc2CCc2ccccc21 (stereo unspecified) | 1.4%
COc1ccccc1OP(C)(=O)Nc1c(C)cccc1C (stereo unspecified) | -1.86%
O=P1(Nc2ncccn2)COc2ccccc2OC1 | 19.9%
Cc1ccc(OCC(=O)OC2CN3CCC2CC3)cc1 (stereo unspecified) | 19.1%
O=P1(Nc2ccc(Br)cn2)COc2ccccc2OC1 | 4.32%
CCCOc1ccc(NP(C)(=O)Oc2ccc(Cl)cc2)cc1 (stereo unspecified) | -25%

Compound | inhibition
CP(=O)(Nc1ccc(SC(F)(F)F)cc1)Oc1ccccc1 (stereo unspecified) | -22.9%
COc1cc(C2NCCC3(OCCO3)C2(C)C)cc(OC)c1OC.O=[N+]([O-])c1cc([N+](=O)[O-])c(O)c([N+](=O)[O-])c1 (stereo unspecified) | 11.8%
Cc1nn(-c2ccccc2)c2c1P(=O)(N1CCOCC1)N(C)C(c1ccccc1)=N2 (stereo unspecified) | -6.71%
CC1CCC(C(C)C)C(OP(=O)(Nc2ccccn2)c2ccccc2)C1 (stereo unspecified) | -3.31%
CN(C)C1(CNC(=O)c2ccc(S(C)(=O)=O)cc2)CCCCC1 | 11.5%
Cc1nc2ccc3ccccc3c2s1.O=[N+]([O-])c1cc([N+](=O)[O-])c(O)c([N+](=O)[O-])c1 | 8.88%
CN(C(=O)Cc1ccc(Cl)c(Cl)c1)[C@@H]1CCCC[C@H]1N1CCCC1 | 7.42%
CC(C)/C=N\N=C(\N)N[N+](=O)[O-] | 2.89%
O=P1(Nc2ccccn2)COc2ccccc2OC1 | -24.1%
O=[N+]([O-])c1cc([N+](=O)[O-])c(-n2nnc3ccccc32)c([N+](=O)[O-])c1 | -3.09%
Clc1n[nH]nc1-c1nn[nH][15n]1 | -6.27%
CCOC(=O)c1ccc(NP(C)(=O)Oc2ccc(OC)cc2)cc1 (stereo unspecified) | -10.4%
CCOP(C)(=S)SCC(=O)NC(C)C(=O)O (stereo unspecified) | -4.32%
CP(=O)(Nc1ccccn1)Oc1ccc(Cl)cc1 (stereo unspecified) | 9.33%
CCC(C)N(CC(C)C)C(=S)SC(NC(C)=O)C(Cl)(Cl)Cl (stereo unspecified) | 45.3%
COP1(=S)c2c(C)nn(CCC#N)c2N=C(c2ccc(F)cc2)N1C (stereo unspecified) | 4.22%
Cc1cccc(C)c1OP(C)(=O)Nc1ccc(SC(F)(F)F)cc1 (stereo unspecified) | 6.81%
CP(=O)(Oc1ccccc1)OC(c1ccccc1)C(F)(F)F (stereo unspecified) | 5.3%
CP(=O)(NC(=O)Nc1ccccc1)Oc1ccccc1 (stereo unspecified) | 7.58%
O=C(COc1ccccc1)OC1CN2CCC1CC2 (stereo unspecified) | 2.04%
Cc1cc(C)cc(OP(C)(=O)Nc2ccc(SC(F)(F)F)cc2)c1 (stereo unspecified) | -9.18%
CP(=S)(Nn1cnnc1)Oc1ccccc1 (stereo unspecified) | -4.08%
CP(=O)(Nc1ccccc1Br)Oc1ccccc1 (stereo unspecified) | 2.74%
Cc1cc(SC(NC=O)C(Cl)(Cl)Cl)ncn1 (stereo unspecified) | -3.2%

Compound | inhibition
O=P(Nc1ccccn1)(c1cccc2ccccc12)c1cccc2ccccc12 | 5.83%
COc1ccccc1OP(C)(=O)Nc1ccccc1 (stereo unspecified) | 4.17%
Cc1cc(SC(NC(=O)c2ccccc2)C(Cl)(Cl)Cl)nc(C(C)C)n1 (stereo unspecified) | 28.7%
COc1ccccc1OP(C)(=O)Nc1ccc(C)cc1 (stereo unspecified) | 5.37%
Cc1ccc(NP(C)(=O)Oc2ccccc2)c(C)c1 (stereo unspecified) | 6.12%
CCOC(=O)c1ccc(NP(C)(=O)Oc2ccccc2)cc1 (stereo unspecified) | -23.8%
ClCCSc1nnc(-c2cccnc2)o1 | 10.8%
Cc1cc(C)cc(OP(C)(N)=O)c1 (stereo unspecified) | 2.58%
CC(C)NC(=O)NP(=O)(Oc1ccccc1)Oc1ccccc1 | 4.41%
COc1ccccc1OP(C)(=O)Nc1cc(Cl)ccc1C (stereo unspecified) | -12.2%
CCN(CC)C(=S)SC(NC=O)C(Cl)(Cl)Cl (stereo unspecified) | 10.6%
COc1ccc(OP(C)(=O)Nc2cccc(F)c2)cc1 (stereo unspecified) | 2.62%
O=[N+]([O-])c1cc([N+](=O)[O-])c(-c2ccn[nH]2)s1 | 18.3%
O=[N+]([O-])c1ccc2c(c1)C=Nc1ccccc1O2 | 63.1%
Cc1ccc2nc3c(c(C)c2c1)CC(C(Cl)Cl)S3 (stereo unspecified) | -3.04%
CC(C)(C)c1ccc(OP(C)(=O)Nc2ccc(SC(F)(F)F)cc2)cc1 (stereo unspecified) | 38.5%
Cc1cccc(C)c1OP(C)(N)=O (stereo unspecified) | 11.6%
COc1ccc(N/C(=N/P(=O)(N2CCOCC2)N2CCOCC2)N2CCOCC2)cc1 | 8.87%
O=C(OC1CN2CCC1CC2)C12CC3CC(CC(C3)C1)C2 (stereo unspecified) | -8.57%
Cc1cc(=O)[nH]c(N[N+](=O)[O-])n1 | -25%
CCN(CC)CCCOC(=O)C(O)(c1ccccc1)c1ccccc1 | 3.4%
Cc1c2c(nc3ccccc13)SC(C(Cl)Cl)C2 (stereo unspecified) | 19.1%
COc1ccc2nc(NP(=O)(c3ccccc3)c3ccccc3)sc2c1 | 0.34%
